Results from CN110872351A.
Results are given in words; binding and its absence hold for the method and conditions named. Some entries that bind do so weakly or less than the wild type.

The chains behind the UniProt entries cited, without tags or fusion partners. Residues count along the entry.
UniProt P51654, residues 25-559: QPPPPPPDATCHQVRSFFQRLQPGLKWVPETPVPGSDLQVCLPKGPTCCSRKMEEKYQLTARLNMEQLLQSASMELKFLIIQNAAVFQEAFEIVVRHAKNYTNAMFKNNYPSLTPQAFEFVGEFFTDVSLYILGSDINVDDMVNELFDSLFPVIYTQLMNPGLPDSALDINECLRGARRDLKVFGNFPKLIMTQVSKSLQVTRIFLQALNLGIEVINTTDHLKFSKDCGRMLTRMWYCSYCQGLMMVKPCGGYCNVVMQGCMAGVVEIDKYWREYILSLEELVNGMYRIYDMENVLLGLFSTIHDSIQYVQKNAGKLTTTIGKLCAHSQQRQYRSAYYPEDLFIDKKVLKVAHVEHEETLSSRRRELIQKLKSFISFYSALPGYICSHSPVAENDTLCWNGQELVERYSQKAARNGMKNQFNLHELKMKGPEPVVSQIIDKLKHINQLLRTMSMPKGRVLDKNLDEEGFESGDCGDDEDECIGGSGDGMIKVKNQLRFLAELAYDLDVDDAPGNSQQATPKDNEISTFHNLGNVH

Tests used:
[1] = molecular target: GPC3蛋白 (glypican-3 protein expressed in eukaryotic HEK293 cells) (UniProt P51654); test: ELISA on coated GPC3 protein (1 μg/mL), GN1 heated for 2 h, detected with HRP anti-HA mAb, OD450
[2] = molecular target: GPC3蛋白 (glypican-3 protein expressed in eukaryotic HEK293 cells) (UniProt P51654); test: sandwich phage ELISA: GPC3 protein captured by coated GPC3 polyclonal antibody, phage-displayed clone detected with anti-M13

B1: 纳米抗体GN1 (nanobody GN1 that specifically binds GPC3 protein) (VHH, not shown: small tags and cut ends)
VHH: QVQLVESGGGLVQAGGSLRLSCAASGRTFVGSTMGWFRQAPGKEREFVARMSWLGRSTYYADSVKGRFTISRDNAKNTVYLQMNSLKPEDTAVYYCALALGYIDLARPDAVDAWGQGTLVTVSS
binding [1]: binds
binding [2]: binds
